In paper PMC9970984:
Results are given in words; binding and its absence hold for the method and conditions named. Binding calls can cover weak binding; strength is not graded here. Sequences can lack the tags named with a protein.

Biological target: T1, GST-KAT8 FL (human) (UniProt Q9H7Z6)
T1 sequence: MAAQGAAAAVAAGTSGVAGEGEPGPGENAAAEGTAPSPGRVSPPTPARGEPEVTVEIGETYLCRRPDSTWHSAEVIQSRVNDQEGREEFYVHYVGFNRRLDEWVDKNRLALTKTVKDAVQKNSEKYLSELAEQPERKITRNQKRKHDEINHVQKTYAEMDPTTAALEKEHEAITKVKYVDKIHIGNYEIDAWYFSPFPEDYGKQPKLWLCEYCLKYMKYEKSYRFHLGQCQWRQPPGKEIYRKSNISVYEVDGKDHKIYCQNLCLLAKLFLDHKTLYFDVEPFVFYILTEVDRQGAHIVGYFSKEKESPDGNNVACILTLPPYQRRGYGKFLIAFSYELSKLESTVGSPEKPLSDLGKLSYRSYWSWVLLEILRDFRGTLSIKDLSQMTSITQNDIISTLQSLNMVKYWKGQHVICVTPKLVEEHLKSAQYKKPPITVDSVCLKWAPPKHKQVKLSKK
Experiment: pull-down; GST pull-down: His-tagged proteins incubated with GST fusion proteins in TEN buffers for 4 h at 4 °C, beads washed three times; Western blotting with anti-GST or anti-His and Coomassie staining; both purified

His-GCN5 N-terminus fragment (human) (domain or fragment)
binding: binds
